Drawing on PMC8209642, this text covers binding for two substances.

Protein sequences, listed by entry. Tags and fused reporters are not part of them.
UniProt P52294: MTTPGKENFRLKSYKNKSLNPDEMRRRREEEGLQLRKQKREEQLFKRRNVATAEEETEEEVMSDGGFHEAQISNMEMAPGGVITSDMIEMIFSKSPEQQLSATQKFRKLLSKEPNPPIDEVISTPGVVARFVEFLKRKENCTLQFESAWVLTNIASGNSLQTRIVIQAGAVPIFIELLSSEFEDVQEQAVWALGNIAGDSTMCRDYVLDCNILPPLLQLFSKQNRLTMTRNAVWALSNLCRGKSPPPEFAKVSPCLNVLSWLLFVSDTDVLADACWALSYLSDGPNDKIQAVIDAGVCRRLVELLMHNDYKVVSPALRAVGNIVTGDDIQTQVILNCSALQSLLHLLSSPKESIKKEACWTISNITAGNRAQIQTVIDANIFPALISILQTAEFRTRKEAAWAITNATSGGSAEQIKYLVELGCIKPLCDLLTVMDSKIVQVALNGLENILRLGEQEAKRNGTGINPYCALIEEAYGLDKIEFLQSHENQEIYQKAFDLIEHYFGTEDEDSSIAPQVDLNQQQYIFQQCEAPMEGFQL
UniProt Q9GZV5: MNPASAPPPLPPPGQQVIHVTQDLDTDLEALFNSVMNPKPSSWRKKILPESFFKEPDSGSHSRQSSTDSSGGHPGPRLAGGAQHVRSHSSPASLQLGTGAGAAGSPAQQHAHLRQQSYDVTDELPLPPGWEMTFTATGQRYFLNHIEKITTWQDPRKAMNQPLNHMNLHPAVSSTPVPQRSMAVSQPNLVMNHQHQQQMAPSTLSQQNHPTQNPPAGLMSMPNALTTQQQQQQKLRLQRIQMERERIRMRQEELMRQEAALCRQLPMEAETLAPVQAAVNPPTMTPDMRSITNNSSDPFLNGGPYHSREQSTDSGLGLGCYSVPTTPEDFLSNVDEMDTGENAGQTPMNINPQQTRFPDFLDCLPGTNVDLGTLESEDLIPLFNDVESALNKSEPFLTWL

No constants are given. Whether binding was seen depends on the method and setting. In cells and extracts the contact can be indirect. Some results given as binding are weak or reduced against the parent protein; the word gives no strength.

The target of test [1] is FLAG-His6-tagged importin α5 (human) (UniProt P52294). The test can be described thus: co-IP; HEK293FT cells transfected with pCIneoFH-importin α5 and pCIneoGFP-TAZ, treated with DMSO or 10 μM TI-4 for 48 h, with control siRNA or CSE1L siRNA beforehand; immunoprecipitation with anti-DYKDDDDK beads.
In test [2] the target is endogenous TAZ (human (endogenous in HEK293FT)) (UniProt Q9GZV5). The test can be described thus: co-IP; endogenous proteins; HEK293FT cells transfected with CSE1L siRNA, lysed 72 h later; supernatant incubated with rabbit control IgG or TAZ polyclonal antibody, then Protein G Sepharose; lysis buffer 25 mM Tris-HCl pH 7.4, 150 mM NaCl, 1% Triton X-100.

On to “GFP-tagged TAZ (transcriptional coactivator with PDZ-binding motif) (from UniProt Q9GZV5 1-400)”, for which, in test [1], the binding result was “binds”.
Turning to “endogenous importin α5 (from UniProt P52294 1-538)”, the binding entry in test [2] was “binds”.
